This passage reports binding results from PMC11014436.

Amino acid sequences for entries named in this document (tags omitted). A change or cut given only in a name is not applied to a line headed by its entry.
UniProt Q9NP72: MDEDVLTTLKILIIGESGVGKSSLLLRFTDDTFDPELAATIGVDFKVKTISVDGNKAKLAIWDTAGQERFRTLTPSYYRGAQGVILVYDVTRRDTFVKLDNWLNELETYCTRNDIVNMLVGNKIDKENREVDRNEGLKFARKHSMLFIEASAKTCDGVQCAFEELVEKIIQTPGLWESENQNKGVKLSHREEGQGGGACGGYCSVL
UniProt P11142: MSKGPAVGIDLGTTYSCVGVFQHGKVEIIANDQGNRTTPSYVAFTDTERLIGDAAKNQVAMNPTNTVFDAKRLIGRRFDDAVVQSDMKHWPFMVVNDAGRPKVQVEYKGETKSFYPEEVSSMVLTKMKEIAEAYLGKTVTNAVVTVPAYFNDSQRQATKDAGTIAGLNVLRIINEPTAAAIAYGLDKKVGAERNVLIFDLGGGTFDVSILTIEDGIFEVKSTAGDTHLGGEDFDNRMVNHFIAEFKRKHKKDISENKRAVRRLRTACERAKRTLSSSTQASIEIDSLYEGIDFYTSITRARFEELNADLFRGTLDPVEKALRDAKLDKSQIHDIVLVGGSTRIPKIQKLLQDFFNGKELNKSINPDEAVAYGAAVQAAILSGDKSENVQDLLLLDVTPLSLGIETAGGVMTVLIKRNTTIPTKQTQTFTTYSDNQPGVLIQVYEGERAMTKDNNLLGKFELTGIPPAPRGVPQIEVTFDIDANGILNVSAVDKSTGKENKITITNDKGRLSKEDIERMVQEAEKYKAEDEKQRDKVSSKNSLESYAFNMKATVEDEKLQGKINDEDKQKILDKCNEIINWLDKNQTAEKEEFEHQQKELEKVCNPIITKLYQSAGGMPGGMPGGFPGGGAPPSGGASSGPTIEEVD

The target of assay [1] is RAB18-FLAG lacking the Switch II domain (UniProt Q9NP72). The assay is described as follows: co-IP; HEK293T cells co-transfected for 24 h; lysis buffer PBS, 1% NP-40, 5 mM EDTA, 5 mM EGTA; Sepharose with IgG, anti-FLAG or anti-HA mAb for 4 h; immunoblot. A general note: In western blotting, separated proteins are transferred to a membrane and probed.
The target of assay [2] is GST-RAB18 with the Switch II domain deleted (UniProt Q9NP72). The assay is described as follows: pull-down; in vitro affinity isolation: GST-tag purification resin, 1 nM His-tagged protein with 1 nM GST fusion protein in 500 μL PBS + 1% Triton X-100, 45 min at 4°C; five washes; immunoblot; both purified.

No constants are given. Whether binding was seen depends on the method and setting. For some assays here: Binding seen in cells or lysates may run through a third protein.

With HSPA8-HA (from UniProt P11142 1-646), the binding entry in assay [1] is on record as “no binding”. On to “His-SUMO-HSPA8 (from UniProt P11142 1-646)”, for which, in assay [2], the binding result is “no binding (tested: 1 nM)”.
